Measured values published in PMC12208130.
For at least one entry, the source does not settle the construct or the ends of the probe. Where cells or extracts were used, other partners may take part. No signal at the amounts used counts as a negative. At least one verdict was read from the data and is not stated in words by the source.

Biological target: T1, PTK7 (receptor on HCT116 cells) (human (HCT116 colon cancer cells)) (UniProt Q13308)
T1 sequence: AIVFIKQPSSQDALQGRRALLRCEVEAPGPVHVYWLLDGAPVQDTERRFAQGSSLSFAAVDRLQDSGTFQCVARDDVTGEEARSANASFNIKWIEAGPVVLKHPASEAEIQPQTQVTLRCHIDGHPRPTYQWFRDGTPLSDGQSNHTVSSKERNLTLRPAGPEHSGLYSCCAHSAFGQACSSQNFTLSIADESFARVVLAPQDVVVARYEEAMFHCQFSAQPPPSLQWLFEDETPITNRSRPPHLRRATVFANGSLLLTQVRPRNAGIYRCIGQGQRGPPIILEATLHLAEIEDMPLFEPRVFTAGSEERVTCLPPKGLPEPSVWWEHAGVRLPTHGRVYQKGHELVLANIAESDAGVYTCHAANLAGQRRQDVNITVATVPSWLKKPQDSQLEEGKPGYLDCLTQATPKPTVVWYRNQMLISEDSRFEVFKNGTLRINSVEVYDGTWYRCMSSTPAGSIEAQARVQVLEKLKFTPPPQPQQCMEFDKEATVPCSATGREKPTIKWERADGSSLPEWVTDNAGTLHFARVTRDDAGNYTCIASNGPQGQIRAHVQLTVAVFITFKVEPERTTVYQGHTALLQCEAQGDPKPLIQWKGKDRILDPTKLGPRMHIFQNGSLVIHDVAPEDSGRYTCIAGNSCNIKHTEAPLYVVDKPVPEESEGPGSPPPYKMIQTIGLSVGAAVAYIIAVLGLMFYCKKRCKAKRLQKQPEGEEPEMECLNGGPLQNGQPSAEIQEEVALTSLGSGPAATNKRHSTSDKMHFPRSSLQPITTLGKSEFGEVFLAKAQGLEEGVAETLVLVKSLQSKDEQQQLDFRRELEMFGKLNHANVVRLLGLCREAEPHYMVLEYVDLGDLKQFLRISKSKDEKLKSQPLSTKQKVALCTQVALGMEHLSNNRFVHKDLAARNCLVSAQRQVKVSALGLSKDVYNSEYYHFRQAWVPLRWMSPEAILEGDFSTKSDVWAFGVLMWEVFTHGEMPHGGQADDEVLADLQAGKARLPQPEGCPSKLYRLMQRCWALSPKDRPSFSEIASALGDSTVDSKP
Assay: flow cytometry
Conditions: 250 nM aptamer (varied for Kd), 30 min at 4 C, DPBS with ~5 mM MgCl2, 0.1 mg/mL yeast tRNA, protein on the cell surface

“ATCTAACTGATTATTATTATTATTATTATTATTCGGTTAGA [Lib (Lib-Sgc8-Cy5)]”: no binding (250 nM, negative control, label: 3'-Cy5, single-stranded DNA).
“ATCTAACTGCTGCGCCGCCGGGAAAATACTGTACGGTTAGA [Sgc8-1A]”: binds (250 nM, fluorescence comparable to Sgc8c, Kd only in Fig. 3B, A1 = cordycepin (3'-deoxyadenosine), 2'-5' linkage, label: 3'-Cy5, synthetic backbone).
“ATCTAACTGCTGCGCCGCCGGGAAAATACTGTACGGTTAGA [Sgc8-6A]”: no binding (nonspecific linear trend, lack of specific binding, weaker fluorescence at 250 nM, A6 = cordycepin (3'-deoxyadenosine), 2'-5' linkage, label: 3'-Cy5, synthetic backbone).
“ATCTAACTGCTGCGCCGCCGGGAAAATACTGTACGGTTAGA [Sgc8-28A]”: binds (250 nM, fluorescence comparable to Sgc8c, Kd only in Fig. 3B, A28 = cordycepin (3'-deoxyadenosine), 2'-5' linkage, label: 3'-Cy5, synthetic backbone).
“ATCTAACTGCTGCGCCGCCGGGAAAATACTGTACGGTTAGA [Sgc8-33A]”: binds (250 nM, fluorescence comparable to Sgc8c, Kd only in Fig. 3B, A33 = cordycepin (3'-deoxyadenosine), 2'-5' linkage, label: 3'-Cy5, synthetic backbone).
